Experiment [1] concerns the target T1, N-α-Acetyltransferase 10 protein (Naa10p), endogenous (human (endogenous in DU145)) (UniProt P41227).
T1 sequence: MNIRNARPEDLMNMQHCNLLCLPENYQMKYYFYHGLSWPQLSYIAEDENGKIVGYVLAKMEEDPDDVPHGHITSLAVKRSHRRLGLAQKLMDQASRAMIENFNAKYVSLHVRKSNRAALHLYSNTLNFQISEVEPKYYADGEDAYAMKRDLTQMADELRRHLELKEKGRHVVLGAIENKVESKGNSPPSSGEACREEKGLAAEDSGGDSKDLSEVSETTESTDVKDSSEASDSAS
Description: co-IP; endogenous proteins; DU145 cells lysed in NETN buffer; 2 mg lysate with anti-Naa10p antibody overnight at 4 °C, then protein A Sepharose beads 1 h, five washes; normal IgG as IP control; Western blot. On the technique in general: In western blotting, separated proteins are transferred to a membrane and probed.

Amino acid sequences for entries named in this document (tags omitted). Residues count along the entry.
UniProt Q13443, residues 29-819: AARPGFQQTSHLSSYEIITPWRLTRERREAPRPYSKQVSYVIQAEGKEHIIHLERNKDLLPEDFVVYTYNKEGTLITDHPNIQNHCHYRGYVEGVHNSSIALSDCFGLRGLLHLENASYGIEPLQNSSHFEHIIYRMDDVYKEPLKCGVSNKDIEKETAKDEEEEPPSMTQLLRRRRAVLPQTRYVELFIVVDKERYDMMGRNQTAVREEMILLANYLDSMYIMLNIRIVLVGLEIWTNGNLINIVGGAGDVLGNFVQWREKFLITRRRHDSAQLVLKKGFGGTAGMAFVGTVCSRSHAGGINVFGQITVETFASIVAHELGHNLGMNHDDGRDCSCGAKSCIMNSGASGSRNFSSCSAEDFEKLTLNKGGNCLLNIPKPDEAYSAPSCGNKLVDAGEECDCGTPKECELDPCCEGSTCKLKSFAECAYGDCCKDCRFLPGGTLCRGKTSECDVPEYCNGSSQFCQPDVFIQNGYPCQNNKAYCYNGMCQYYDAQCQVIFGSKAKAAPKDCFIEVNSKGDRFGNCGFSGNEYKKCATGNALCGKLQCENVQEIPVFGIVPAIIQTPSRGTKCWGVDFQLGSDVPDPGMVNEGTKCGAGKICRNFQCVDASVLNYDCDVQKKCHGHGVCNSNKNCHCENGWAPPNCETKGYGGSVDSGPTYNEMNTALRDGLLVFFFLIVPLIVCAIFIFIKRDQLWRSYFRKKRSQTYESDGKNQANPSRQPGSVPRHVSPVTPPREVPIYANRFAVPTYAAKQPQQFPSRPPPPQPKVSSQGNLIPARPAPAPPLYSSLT

In experiment [2] the target is a disintegrin and metalloprotease 9, flag-tagged (ADAM9-flag) (UniProt Q13443). Put plainly: co-IP; 293T cells co-transfected with ADAM9-flag and Naa10p-V5 for 48 h; NETN lysis buffer (150 mM NaCl, 20 mM Tris-base, 0.5% NP-40, 1 mM EDTA); 2 mg lysate with Anti-Flag M2 affinity gel at 4 °C overnight, five washes; Western blot.

Results are given in words; binding and its absence hold for the method and conditions named. Binding seen in cells or lysates may run through a third protein. Some results given as binding are weak or reduced against the parent protein; the word gives no strength. For some assays here: Sequences can lack the tags named with a protein.

Turning to “a disintegrin and metalloprotease 9 (ADAM9), endogenous (from UniProt Q13443 29-819)”, in experiment [1], the binding result is recorded as “binds”.

B1: N-α-Acetyltransferase 10 protein, V5-tagged (Naa10p-V5) (protein, UniProt P41227 1-235)
chain: MNIRNARPEDLMNMQHCNLLCLPENYQMKYYFYHGLSWPQLSYIAEDENGKIVGYVLAKMEEDPDDVPHGHITSLAVKRSHRRLGLAQKLMDQASRAMIENFNAKYVSLHVRKSNRAALHLYSNTLNFQISEVEPKYYADGEDAYAMKRDLTQMADELRRHLELKEKGRHVVLGAIENKVESKGNSPPSSGEACREEKGLAAEDSGGDSKDLSEVSETTESTDVKDSSEASDSAS
For the molecule B1, in experiment [2], the binding result was “binds”.

These data come from PMC7385149.
